{"sequences": {"note": "Sequences of proteins named here, by UniProt entry; tags and fusion partners are left off. Residues count along the entry.", "UniProt Q6PD10": "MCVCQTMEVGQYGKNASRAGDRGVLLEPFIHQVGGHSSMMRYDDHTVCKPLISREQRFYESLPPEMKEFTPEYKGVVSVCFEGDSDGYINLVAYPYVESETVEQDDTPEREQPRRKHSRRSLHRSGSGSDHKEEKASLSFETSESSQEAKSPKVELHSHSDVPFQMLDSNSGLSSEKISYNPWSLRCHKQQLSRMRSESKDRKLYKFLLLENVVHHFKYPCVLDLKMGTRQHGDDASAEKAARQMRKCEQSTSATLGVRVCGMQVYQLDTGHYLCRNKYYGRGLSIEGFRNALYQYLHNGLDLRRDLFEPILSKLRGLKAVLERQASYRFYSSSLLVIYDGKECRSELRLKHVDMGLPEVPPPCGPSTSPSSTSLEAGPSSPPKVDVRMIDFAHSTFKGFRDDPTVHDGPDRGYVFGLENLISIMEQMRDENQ", "UniProt P07355": "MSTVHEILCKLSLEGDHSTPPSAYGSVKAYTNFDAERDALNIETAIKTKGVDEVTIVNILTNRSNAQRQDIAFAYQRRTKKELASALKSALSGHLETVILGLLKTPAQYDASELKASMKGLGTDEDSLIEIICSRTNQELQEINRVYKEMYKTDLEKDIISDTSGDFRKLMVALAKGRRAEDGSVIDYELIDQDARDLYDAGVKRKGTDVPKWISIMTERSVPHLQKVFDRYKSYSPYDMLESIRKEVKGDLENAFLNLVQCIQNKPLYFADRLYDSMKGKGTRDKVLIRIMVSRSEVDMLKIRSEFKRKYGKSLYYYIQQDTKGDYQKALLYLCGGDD", "UniProt P31431, residues 19-198": "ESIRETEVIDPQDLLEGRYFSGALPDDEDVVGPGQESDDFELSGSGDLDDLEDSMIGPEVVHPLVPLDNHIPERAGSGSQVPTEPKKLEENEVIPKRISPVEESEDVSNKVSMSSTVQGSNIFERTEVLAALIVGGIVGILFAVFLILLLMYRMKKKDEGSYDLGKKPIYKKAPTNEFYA"}, "source": "paper doi:10.1101/2025.09.17.676719", "molecules": {"B1": {"name": "UBE4A (protein, UniProt Q14139 1-1066)", "chain": "MTDQENNNNISSNPFAALFGSLADAKQFAAIQKEQLKQQSDELPASPDDSDNSVSESLDEFDYSVAEISRSFRSQQEICEQLNINHMIQRIFLITLDNSDPSLKSGNGIPSRCVYLEEMAVELEDQDWLDMSNVEQALFARLLLQDPGNHLINMTSSTTLNLSADRDAGERHIFCYLYSCFQRAKEEITKVPENLLPFAVQCRNLTVSNTRTVLLTPEIYVDQNIHEQLVDLMLEAIQGAHFEDVTEFLEEVIEALILDEEVRTFPEVMIPVFDILLGRIKDLELCQILLYAYLDILLYFTRQKDMAKVFVEYIQPKDPTNGQMYQKTLLGVILSISCLLKTPGVVENHGYFLNPSRSSPQEIKVQEANIHQFMAQFHEKIYQMLKNLLQLSPETKHCILSWLGNCLHANAGRTKIWANQMPEIFFQMYASDAFFLNLGAALLKLCQPFCKPRSSRLLTFNPTYCALKELNDEERKIKNVHMRGLDKETCLIPAVQEPKFPQNYNLVTENLALTEYTLYLGFHRLHDQMVKINQNLHRLQVAWRDAQQSSSPAADNLREQFERLMTIYLSTKTAMTEPQMLQNCLNLQVSMAVLLVQLAIGNEGSQPIELTFPLPDGYSSLAYVPEFFADNLGDFLIFLRRFADDILETSADSLEHVLHFITIFTGSIERMKNPHLRAKLAEVLEAVMPHLDQTPNPLVSSVFHRKRVFCNFQYAPQLAEALIKVFVDIEFTGDPHQFEQKFNYRRPMYPILRYMWGTDTYRESIKDLADYASKNLEAMNPPLFLRFLNLLMNDAIFLLDEAIQYLSKIKIQQIEKDRGEWDSLTPEARREKEAGLQMFGQLARFHNIMSNETIGTLAFLTSEIKSLFVHPFLAERIISMLNYFLQHLVGPKMGALKVKDFSEFDFKPQQLVSDICTIYLNLGDEENFCATVPKDGRSYSPTLFAQTVRVLKKINKPGNMIMAFSNLAERIKSLADLQQQEEETYADACDEFLDPIMSTLMCDPVVLPSSRVTVDRSTIARHLLSDQTDPFNRSPLTMDQIRPNTELKEKIQRWLAERKQQKEQLE"}, "B2": {"name": "AP3B1 (protein, UniProt O00203 1-1094)", "chain": "MSSNSFPYNEQSGGGEATELGQEATSTISPSGAFGLFSSDLKKNEDLKQMLESNKDSAKLDAMKRIVGMIAKGKNASELFPAVVKNVASKNIEIKKLVYVYLVRYAEEQQDLALLSISTFQRALKDPNQLIRASALRVLSSIRVPIIVPIMMLAIKEASADLSPYVRKNAAHAIQKLYSLDPEQKEMLIEVIEKLLKDKSTLVAGSVVMAFEEVCPDRIDLIHKNYRKLCNLLVDVEEWGQVVIIHMLTRYARTQFVSPWKEGDELEDNGKNFYESDDDQKEKTDKKKKPYTMDPDHRLLIRNTKPLLQSRNAAVVMAVAQLYWHISPKSEAGIISKSLVRLLRSNREVQYIVLQNIATMSIQRKGMFEPYLKSFYVRSTDPTMIKTLKLEILTNLANEANISTLLREFQTYVKSQDKQFAAATIQTIGRCATNILEVTDTCLNGLVCLLSNRDEIVVAESVVVIKKLLQMQPAQHGEIIKHMAKLLDSITVPVARASILWLIGENCERVPKIAPDVLRKMAKSFTSEDDLVKLQILNLGAKLYLTNSKQTKLLTQYILNLGKYDQNYDIRDRTRFIRQLIVPNVKSGALSKYAKKIFLAQKPAPLLESPFKDRDHFQLGTLSHTLNIKATGYLELSNWPEVAPDPSVRNVEVIELAKEWTPAGKAKQENSAKKFYSESEEEEDSSDSSSDSESESGSESGEQGESGEEGDSNEDSSEDSSSEQDSESGRESGLENKRTAKRNSKAKGKSDSEDGEKENEKSKTSDSSNDESSSIEDSSSDSESESEPESESESRRVTKEKEKKTKQDRTPLTKDVSLLDLDDFNPVSTPVALPTPALSPSLMADLEGLHLSTSSSVISVSTPAFVPTKTHVLLHRMSGKGLAAHYFFPRQPCIFGDKMVSIQITLNNTTDRKIENIHIGEKKLPIGMKMHVFNPIDSLEPEGSITVSMGIDFCDSTQTASFQLCTKDDCFNVNIQPPVGELLLPVAMSEKDFKKEQGVLTGMNETSAVIIAAPQNFTPSVIFQKVVNVANVGAVPSGQDNIHRFAAKTVHSGSLMLVTVELKEGSTAQLIINTEKTVIGSVLLRELKPVLSQG"}}, "note": "These are yes or no findings as the source states them, for the method shown. Binding seen in cells or lysates may run through a third protein. Here binding means that the protein was enriched with, or labelled near, the bait; the list need not be complete."}
{"molecular_target": "SFB-tagged mouse IP6K1 (inositol hexakisphosphate kinase 1) (mouse) (UniProt Q6PD10)", "assay": "affinity purification with mass spectrometry"}
{"molecule": "Annexin A2 (ANXA2) (from UniProt P07355 1-339)", "binding": "binds"}
{"molecule": "endogenous Syndecan-4 (SDC4) of AGS cells (from UniProt P31431 19-198)", "binding": "binds"}
{"molecule": "B1", "binding": "binds"}
{"molecule": "B2", "binding": "binds"}
